Publication PMC3296735
No constants are given. Whether binding was seen depends on the method and setting. In cells and extracts the contact can be indirect. Some results given as binding are weak or reduced against the parent protein; the word gives no strength. Tags and fused reporters may be left off the sequences shown. Each block holds one binder with its values, some of them ahead of it.

How the values were obtained:
Test in all cases: FRET or BRET; BRET^2 saturation curves in CHO cells: 0.5 µg RLuc-tagged construct with 0.5–3 µg GFP-tagged construct cDNA, DeepBlueC 5 µM, about 100,000 cells per well in DPBS with aprotinin; fitted to a single binding site equation
[1] = target: human GLP1R fused at its C-terminus to GFP or Renilla luciferase (RLuc) (BRET constructs) (human) (UniProt P43220)
[2] = target: T1, human GIPR fused at its C-terminus to Renilla luciferase (RLuc) or GFP (BRET constructs) (human) (UniProt P48546)
T1 sequence: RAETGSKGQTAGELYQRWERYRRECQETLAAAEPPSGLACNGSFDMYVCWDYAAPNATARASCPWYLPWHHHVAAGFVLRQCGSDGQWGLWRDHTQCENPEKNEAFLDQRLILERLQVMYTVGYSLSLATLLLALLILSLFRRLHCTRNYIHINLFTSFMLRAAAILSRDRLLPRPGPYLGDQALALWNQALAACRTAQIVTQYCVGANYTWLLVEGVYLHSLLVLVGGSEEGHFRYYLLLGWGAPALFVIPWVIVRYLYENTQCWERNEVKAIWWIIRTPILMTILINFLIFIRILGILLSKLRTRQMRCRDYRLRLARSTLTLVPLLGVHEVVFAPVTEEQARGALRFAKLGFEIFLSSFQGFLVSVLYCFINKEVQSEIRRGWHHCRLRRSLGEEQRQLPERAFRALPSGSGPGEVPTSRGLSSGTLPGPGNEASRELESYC

[3] = target: T2, human GIPR fused at its C-terminus to Renilla luciferase (RLuc) or GFP (BRET constructs) (human), P48546; details: remark: other sources report otherwise
T2 chain: T1 sequence

[4] = target: T3, human GLP1R fused at its C-terminus to GFP or Renilla luciferase (RLuc) (BRET constructs) (human), P43220; details: remark: other sources report otherwise
T3 chain: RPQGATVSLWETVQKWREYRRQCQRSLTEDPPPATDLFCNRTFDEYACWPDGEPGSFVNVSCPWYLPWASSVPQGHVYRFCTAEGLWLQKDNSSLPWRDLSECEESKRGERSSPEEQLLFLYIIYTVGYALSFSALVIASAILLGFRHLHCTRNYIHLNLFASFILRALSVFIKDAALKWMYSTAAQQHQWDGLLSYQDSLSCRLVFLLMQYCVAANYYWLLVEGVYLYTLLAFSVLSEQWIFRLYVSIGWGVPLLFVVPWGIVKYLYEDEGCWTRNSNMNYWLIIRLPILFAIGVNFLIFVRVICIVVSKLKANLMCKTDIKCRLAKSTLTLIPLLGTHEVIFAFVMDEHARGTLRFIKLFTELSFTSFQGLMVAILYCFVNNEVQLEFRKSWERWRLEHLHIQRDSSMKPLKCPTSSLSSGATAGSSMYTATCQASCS

binding [1]: no binding
binding [2]: no binding
B1: GFP-tagged hyperpolarization-activated channel (HCN2-GFP) (protein, UniProt O88703 1-863)
chain: MDARGGGGRPGDSPGTTPAPGPPPPPPPPAPPQPQPPPAPPPNPTTPSHPESADEPGPRARLCSRDSACTPGAAKGGANGECGRGEPQCSPEGPARGPKVSFSCRGAASGPSAAEEAGSEEAGPAGEPRGSQASFLQRQFGALLQPGVNKFSLRMFGSQKAVEREQERVKSAGAWIIHPYSDFRFYWDFTMLLFMVGNLIIIPVGITFFKDETTAPWIVFNVVSDTFFLMDLVLNFRTGIVIEDNTEIILDPEKIKKKYLRTWFVVDFVSSIPVDYIFLIVEKGIDSEVYKTARALRIVRFTKILSLLRLLRLSRLIRYIHQWEEIFHMTYDLASAVMRICNLISMMLLLCHWDGCLQFLVPMLQDFPSDCWVSINNMVNHSWSELYSFALFKAMSHMLCIGYGRQAPESMTDIWLTMLSMIVGATCYAMFIGHATALIQSLDSSRRQYQEKYKQVEQYMSFHKLPADFRQKIHDYYEHRYQGKMFDEDSILGELNGPLREEIVNFNCRKLVASMPLFANADPNFVTAMLTKLKFEVFQPGDYIIREGTIGKKMYFIQHGVVSVLTKGNKEMKLSDGSYFGEICLLTRGRRTASVRADTYCRLYSLSVDNFNEVLEEYPMMRRAFETVAIDRLDRIGKKNSILLHKVQHDLSSGVFNNQENAIIQEIVKYDREMVQQAELGQRVGLFPPPPPPQVTSAIATLQQAVAMSFCPQVARPLVGPLALGSPRLVRRAPPGPLPPAASPGPPAASPPAAPSSPRAPRTSPYGVPGSPATRVGPALPARRLSRASRPLSASQPSLPHGVPAPSPAASARPASSSTPRLGPAPTARTAAPSPDRRDSASPGAASGLDPLDSARSRLSSNL

binding [3]: binds
binding [4]: binds
B2: human GLP1R fused at its C-terminus to GFP or Renilla luciferase (RLuc) (BRET constructs), P43220 24-463 (receptor)
chain: T3 chain

binding [2]: binds
B3: human GIPR fused at its C-terminus to Renilla luciferase (RLuc) or GFP (BRET constructs) (receptor, UniProt P48546 22-466)
chain: T1 sequence
